Binding data for 1 substance are collected here from PMC8458504, “Targeting the actin nucleation promoting factor WASp provides a therapeutic approach for hematopoietic malignancies” (Nature Communications, 2021).

Protein sequences, listed by entry. Tags and fused reporters are not part of them.
UniProt P42768: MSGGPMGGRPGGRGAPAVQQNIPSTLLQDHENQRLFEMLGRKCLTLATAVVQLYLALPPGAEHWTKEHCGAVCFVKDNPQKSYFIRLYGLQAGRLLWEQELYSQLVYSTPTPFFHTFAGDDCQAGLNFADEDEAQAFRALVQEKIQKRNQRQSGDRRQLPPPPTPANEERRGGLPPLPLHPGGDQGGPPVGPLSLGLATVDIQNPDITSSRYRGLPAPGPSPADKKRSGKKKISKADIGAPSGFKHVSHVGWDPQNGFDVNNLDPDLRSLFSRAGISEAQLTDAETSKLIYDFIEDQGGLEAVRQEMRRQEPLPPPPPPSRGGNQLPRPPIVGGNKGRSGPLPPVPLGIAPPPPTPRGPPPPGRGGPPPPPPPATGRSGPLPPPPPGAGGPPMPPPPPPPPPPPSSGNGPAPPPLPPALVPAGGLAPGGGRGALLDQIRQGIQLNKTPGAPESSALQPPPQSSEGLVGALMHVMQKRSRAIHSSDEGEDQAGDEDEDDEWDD
UniProt O43516: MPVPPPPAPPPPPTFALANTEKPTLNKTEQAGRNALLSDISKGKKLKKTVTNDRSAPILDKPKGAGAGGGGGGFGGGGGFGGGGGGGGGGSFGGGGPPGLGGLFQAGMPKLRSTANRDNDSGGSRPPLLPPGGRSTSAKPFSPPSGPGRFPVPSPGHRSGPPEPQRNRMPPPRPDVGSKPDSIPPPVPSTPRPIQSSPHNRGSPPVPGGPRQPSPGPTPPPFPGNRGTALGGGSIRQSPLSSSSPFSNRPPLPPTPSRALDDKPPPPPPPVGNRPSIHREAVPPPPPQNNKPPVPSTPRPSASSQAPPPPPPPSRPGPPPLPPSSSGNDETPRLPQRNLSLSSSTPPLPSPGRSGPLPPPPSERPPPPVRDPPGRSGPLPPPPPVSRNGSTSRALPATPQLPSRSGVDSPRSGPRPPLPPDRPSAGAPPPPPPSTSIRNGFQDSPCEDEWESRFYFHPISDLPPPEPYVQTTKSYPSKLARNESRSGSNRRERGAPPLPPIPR

No constants are given. Whether binding was seen depends on the method and setting. In cells and extracts the contact can be indirect.

In this assay the target is CFP-WASp (Wiskott–Aldrich Syndrome protein) (human) (UniProt P42768). Briefly: FRET or BRET; Jurkat cells expressing CFP-WASp and YFP-WIP, incubated with 40 μM SMC #13, stimulated 2 min on anti-CD3-coated coverslips, fixed; donor-sensitized acceptor emission, confocal microscopy. On the technique in general: In BRET a luciferase serves as donor, and the signal depends on an acceptor being close.

On to “YFP-WIP (WASp-interacting protein) (from UniProt O43516 1-503)”, for which the binding result is “no binding (condition: cells incubated with 40 μM SMC #13)”.
